Experimental data reported in the supplement of paper PMC9233669.
This sample is rich in variants without activity.

What was measured:
biotinyl-Ile-oxazolone = assay: self-aminoacylation, catalytic enhancement (BIO) (fold over background); higher = more active; k-Seq, kA / k0A0; sequences stand for … in GGGAAUGGAUCCACAUCUACGAAUUC…UUCACUGCAGACUUGACGAAGCUG
Procedure, shortened: (§1)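 Mutagenized RNA pools (0.43 μM; 21-nt variable region) were treated with 2–1250 μM of each biotinyl-aminoacyl-oxazolone. Conditions were 50 μL HEPES/NaCl/KCl/MgCl2/CaCl2 buffer, 5% acetonitrile, pH 6.9–7.0, room temperature, 90 minutes. Catalytic enhancement, the median kA relative to the uncatalyzed rate, was derived from streptavidin capture, qPCR and Illumina sequencing.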

biotinyl-Trp-oxazolone = assay: self-aminoacylation, catalytic enhancement (BWO) (fold over background); higher = more active; k-Seq, kA / k0A0; sequences stand for … in GGGAAUGGAUCCACAUCUACGAAUUC…UUCACUGCAGACUUGACGAAGCUG
Procedure, shortened: as §1

biotinyl-Met-oxazolone = assay: self-aminoacylation, catalytic enhancement (BMO) (fold over background); higher = more active; k-Seq, kA / k0A0; sequences stand for … in GGGAAUGGAUCCACAUCUACGAAUUC…UUCACUGCAGACUUGACGAAGCUG
Procedure, shortened: as §1

biotinyl-Leu-oxazolone = assay: self-aminoacylation, catalytic enhancement (BLO) (fold over background); higher = more active; k-Seq, kA / k0A0; sequences stand for … in GGGAAUGGAUCCACAUCUACGAAUUC…UUCACUGCAGACUUGACGAAGCUG
Procedure, shortened: as §1

biotinyl-Phe-oxazolone = assay: self-aminoacylation, catalytic enhancement (BFO) (fold over background); higher = more active; k-Seq, kA / k0A0; sequences stand for … in GGGAAUGGAUCCACAUCUACGAAUUC…UUCACUGCAGACUUGACGAAGCUG
Procedure, shortened: as §1

biotinyl-Val-oxazolone = assay: self-aminoacylation, catalytic enhancement (BVO) (fold over background); higher = more active; k-Seq, kA / k0A0; sequences stand for … in GGGAAUGGAUCCACAUCUACGAAUUC…UUCACUGCAGACUUGACGAAGCUG
Procedure, shortened: as §1

CUACUUCAAACAAUGGGUCCG [Fam1A.1 aminoacylation ribozyme variant]
self-aminoacylation (biotinyl-Ile-oxazolone): 0.975 | self-aminoacylation (biotinyl-Trp-oxazolone): 1.01 | self-aminoacylation (biotinyl-Met-oxazolone): 0.85 | self-aminoacylation (biotinyl-Leu-oxazolone): 1.01 | self-aminoacylation (biotinyl-Phe-oxazolone): 0.542 | self-aminoacylation (biotinyl-Val-oxazolone): 0.896

CUACUUCAAACAAUGGGUCUU [Fam1A.1 aminoacylation ribozyme variant]
self-aminoacylation (biotinyl-Ile-oxazolone): 0.964 | self-aminoacylation (biotinyl-Trp-oxazolone): 1.14 | self-aminoacylation (biotinyl-Met-oxazolone): 0.843 | self-aminoacylation (biotinyl-Leu-oxazolone): 0.7 | self-aminoacylation (biotinyl-Phe-oxazolone): 0.668 | self-aminoacylation (biotinyl-Val-oxazolone): 0.956

CUACUUCAAACAAUUGCUCUG [Fam1A.1 aminoacylation ribozyme variant]
self-aminoacylation (biotinyl-Ile-oxazolone): 0.746 | self-aminoacylation (biotinyl-Trp-oxazolone): 0.814 | self-aminoacylation (biotinyl-Met-oxazolone): 0.582 | self-aminoacylation (biotinyl-Leu-oxazolone): 0.613 | self-aminoacylation (biotinyl-Phe-oxazolone): 0.695 | self-aminoacylation (biotinyl-Val-oxazolone): 0.681

CUACUUCAAACAAUUGGGCUG [Fam1A.1 aminoacylation ribozyme variant]
self-aminoacylation (biotinyl-Ile-oxazolone): 1.34 | self-aminoacylation (biotinyl-Trp-oxazolone): 1.02 | self-aminoacylation (biotinyl-Met-oxazolone): 1 | self-aminoacylation (biotinyl-Leu-oxazolone): 1.18 | self-aminoacylation (biotinyl-Phe-oxazolone): 0.977 | self-aminoacylation (biotinyl-Val-oxazolone): 1.24

CUACUUCAAACAAUUGGUCUC [Fam1A.1 aminoacylation ribozyme variant]
self-aminoacylation (biotinyl-Ile-oxazolone): 0.71 | self-aminoacylation (biotinyl-Trp-oxazolone): 0.818 | self-aminoacylation (biotinyl-Met-oxazolone): 0.656 | self-aminoacylation (biotinyl-Leu-oxazolone): 0.601 | self-aminoacylation (biotinyl-Phe-oxazolone): 1.2 | self-aminoacylation (biotinyl-Val-oxazolone): 0.695

CUACUUCAAACAAUUGGUUUG [Fam1A.1 aminoacylation ribozyme variant]
self-aminoacylation (biotinyl-Ile-oxazolone): 0.757 | self-aminoacylation (biotinyl-Trp-oxazolone): 0.708 | self-aminoacylation (biotinyl-Met-oxazolone): 0.676 | self-aminoacylation (biotinyl-Leu-oxazolone): 0.721 | self-aminoacylation (biotinyl-Phe-oxazolone): 0.803 | self-aminoacylation (biotinyl-Val-oxazolone): 0.7

CUACUUCAAACACACGGUCUG [Fam1A.1 aminoacylation ribozyme variant]
self-aminoacylation (biotinyl-Ile-oxazolone): 0.967 | self-aminoacylation (biotinyl-Trp-oxazolone): 0.995 | self-aminoacylation (biotinyl-Met-oxazolone): 0.715 | self-aminoacylation (biotinyl-Leu-oxazolone): 0.894 | self-aminoacylation (biotinyl-Phe-oxazolone): 0.72 | self-aminoacylation (biotinyl-Val-oxazolone): 0.853

CUACUUCAAACACUCGGUAUG [Fam1A.1 aminoacylation ribozyme variant]
self-aminoacylation (biotinyl-Ile-oxazolone): 0.931 | self-aminoacylation (biotinyl-Trp-oxazolone): 1.04 | self-aminoacylation (biotinyl-Met-oxazolone): 0.77 | self-aminoacylation (biotinyl-Leu-oxazolone): 0.711 | self-aminoacylation (biotinyl-Phe-oxazolone): 0.66 | self-aminoacylation (biotinyl-Val-oxazolone): 1.05

CUACUUCAAACACUCGGUCCG [Fam1A.1 aminoacylation ribozyme variant]
self-aminoacylation (biotinyl-Ile-oxazolone): 1.12 | self-aminoacylation (biotinyl-Trp-oxazolone): 0.646 | self-aminoacylation (biotinyl-Met-oxazolone): 1.31 | self-aminoacylation (biotinyl-Leu-oxazolone): 1.08 | self-aminoacylation (biotinyl-Phe-oxazolone): 0.578 | self-aminoacylation (biotinyl-Val-oxazolone): 1.22

CUACUUCAAACACUCGGUCUA [Fam1A.1 aminoacylation ribozyme variant]
self-aminoacylation (biotinyl-Ile-oxazolone): 1.09 | self-aminoacylation (biotinyl-Trp-oxazolone): 0.738 | self-aminoacylation (biotinyl-Met-oxazolone): 0.819 | self-aminoacylation (biotinyl-Leu-oxazolone): 0.933 | self-aminoacylation (biotinyl-Phe-oxazolone): 0.843 | self-aminoacylation (biotinyl-Val-oxazolone): 1.08

CUACUUCAAACAGUAGGUCUG [Fam1A.1 aminoacylation ribozyme variant]
self-aminoacylation (biotinyl-Ile-oxazolone): 0.895 | self-aminoacylation (biotinyl-Trp-oxazolone): 0.443 | self-aminoacylation (biotinyl-Met-oxazolone): 0.83 | self-aminoacylation (biotinyl-Leu-oxazolone): 0.841 | self-aminoacylation (biotinyl-Phe-oxazolone): 0.843 | self-aminoacylation (biotinyl-Val-oxazolone): 0.921

CUACUUCAAACAGUCGGUCAG [Fam1A.1 aminoacylation ribozyme variant]
self-aminoacylation (biotinyl-Ile-oxazolone): 0.571 | self-aminoacylation (biotinyl-Trp-oxazolone): 0.652 | self-aminoacylation (biotinyl-Met-oxazolone): 0.531 | self-aminoacylation (biotinyl-Leu-oxazolone): 0.595 | self-aminoacylation (biotinyl-Phe-oxazolone): 0.663 | self-aminoacylation (biotinyl-Val-oxazolone): 0.508

CUACUUCAAACAGUCGGUGUG [Fam1A.1 aminoacylation ribozyme variant]
self-aminoacylation (biotinyl-Ile-oxazolone): 1.32 | self-aminoacylation (biotinyl-Trp-oxazolone): 1.08 | self-aminoacylation (biotinyl-Met-oxazolone): 1.63 | self-aminoacylation (biotinyl-Leu-oxazolone): 1.58 | self-aminoacylation (biotinyl-Phe-oxazolone): 0.935 | self-aminoacylation (biotinyl-Val-oxazolone): 1.05

CUACUUCAAACGAUCGAUCUG [Fam1A.1 aminoacylation ribozyme variant]
self-aminoacylation (biotinyl-Ile-oxazolone): 0.55 | self-aminoacylation (biotinyl-Trp-oxazolone): 0.354 | self-aminoacylation (biotinyl-Met-oxazolone): 0.47 | self-aminoacylation (biotinyl-Leu-oxazolone): 0.485 | self-aminoacylation (biotinyl-Phe-oxazolone): 0.425 | self-aminoacylation (biotinyl-Val-oxazolone): 0.584

CUACUUCAAACGAUCGGACUG [Fam1A.1 aminoacylation ribozyme variant]
self-aminoacylation (biotinyl-Ile-oxazolone): 0.632 | self-aminoacylation (biotinyl-Trp-oxazolone): 0.492 | self-aminoacylation (biotinyl-Met-oxazolone): 0.49 | self-aminoacylation (biotinyl-Leu-oxazolone): 0.631 | self-aminoacylation (biotinyl-Phe-oxazolone): 0.61 | self-aminoacylation (biotinyl-Val-oxazolone): 0.697

CUACUUCAAACGAUCGGUCUC [Fam1A.1 aminoacylation ribozyme variant]
self-aminoacylation (biotinyl-Ile-oxazolone): 0.682 | self-aminoacylation (biotinyl-Trp-oxazolone): 0.792 | self-aminoacylation (biotinyl-Met-oxazolone): 0.769 | self-aminoacylation (biotinyl-Leu-oxazolone): 0.611 | self-aminoacylation (biotinyl-Phe-oxazolone): 1.01 | self-aminoacylation (biotinyl-Val-oxazolone): 0.659

CUACUUCAAACGAUCGGUGUG [Fam1A.1 aminoacylation ribozyme variant]
self-aminoacylation (biotinyl-Ile-oxazolone): 0.847 | self-aminoacylation (biotinyl-Trp-oxazolone): 0.792 | self-aminoacylation (biotinyl-Met-oxazolone): 0.937 | self-aminoacylation (biotinyl-Leu-oxazolone): 0.933 | self-aminoacylation (biotinyl-Phe-oxazolone): 0.631 | self-aminoacylation (biotinyl-Val-oxazolone): 0.833

CUACUUCAAACGAUUGGUCUG [Fam1A.1 aminoacylation ribozyme variant]
self-aminoacylation (biotinyl-Ile-oxazolone): 0.766 | self-aminoacylation (biotinyl-Trp-oxazolone): 0.321 | self-aminoacylation (biotinyl-Met-oxazolone): 0.714 | self-aminoacylation (biotinyl-Leu-oxazolone): 0.703 | self-aminoacylation (biotinyl-Phe-oxazolone): 0.791 | self-aminoacylation (biotinyl-Val-oxazolone): 0.775

CUACUUCAAAUAACCGGUCUG [Fam1A.1 aminoacylation ribozyme variant]
self-aminoacylation (biotinyl-Ile-oxazolone): 0.745 | self-aminoacylation (biotinyl-Trp-oxazolone): 0.594 | self-aminoacylation (biotinyl-Met-oxazolone): 0.429 | self-aminoacylation (biotinyl-Leu-oxazolone): 0.596 | self-aminoacylation (biotinyl-Phe-oxazolone): 0.628 | self-aminoacylation (biotinyl-Val-oxazolone): 0.68

CUACUUCAAAUAAUCGGUCUU [Fam1A.1 aminoacylation ribozyme variant]
self-aminoacylation (biotinyl-Ile-oxazolone): 0.974 | self-aminoacylation (biotinyl-Trp-oxazolone): 5.86 | self-aminoacylation (biotinyl-Met-oxazolone): 1.04 | self-aminoacylation (biotinyl-Leu-oxazolone): 0.941 | self-aminoacylation (biotinyl-Phe-oxazolone): 9.54 | self-aminoacylation (biotinyl-Val-oxazolone): 0.934

CUACUUCAAAUAGUCGGUCUG [Fam1A.1 aminoacylation ribozyme variant]
self-aminoacylation (biotinyl-Ile-oxazolone): 0.832 | self-aminoacylation (biotinyl-Trp-oxazolone): 0.536 | self-aminoacylation (biotinyl-Met-oxazolone): 0.874 | self-aminoacylation (biotinyl-Leu-oxazolone): 0.769 | self-aminoacylation (biotinyl-Phe-oxazolone): 0.487 | self-aminoacylation (biotinyl-Val-oxazolone): 0.821

CUACUUCAAAUAUUCGGUCUG [Fam1A.1 aminoacylation ribozyme variant]
self-aminoacylation (biotinyl-Ile-oxazolone): 1.19 | self-aminoacylation (biotinyl-Trp-oxazolone): 1.26 | self-aminoacylation (biotinyl-Met-oxazolone): 1.3 | self-aminoacylation (biotinyl-Leu-oxazolone): 1.12 | self-aminoacylation (biotinyl-Phe-oxazolone): 0.861 | self-aminoacylation (biotinyl-Val-oxazolone): 1.26

CUACUUCAACCAAUCAGUCUG [Fam1A.1 aminoacylation ribozyme variant]
self-aminoacylation (biotinyl-Ile-oxazolone): 0.747 | self-aminoacylation (biotinyl-Trp-oxazolone): 5.54 | self-aminoacylation (biotinyl-Met-oxazolone): 0.541 | self-aminoacylation (biotinyl-Leu-oxazolone): 0.794 | self-aminoacylation (biotinyl-Phe-oxazolone): 13.9 | self-aminoacylation (biotinyl-Val-oxazolone): 0.701

CUACUUCAACCAAUCCGUCUG [Fam1A.1 aminoacylation ribozyme variant]
self-aminoacylation (biotinyl-Ile-oxazolone): 0.941 | self-aminoacylation (biotinyl-Trp-oxazolone): 1.08 | self-aminoacylation (biotinyl-Met-oxazolone): 0.813 | self-aminoacylation (biotinyl-Leu-oxazolone): 0.926 | self-aminoacylation (biotinyl-Phe-oxazolone): 0.984 | self-aminoacylation (biotinyl-Val-oxazolone): 1.1

CUACUUCAACCAAUCGUUCUG [Fam1A.1 aminoacylation ribozyme variant]
self-aminoacylation (biotinyl-Ile-oxazolone): 0.583 | self-aminoacylation (biotinyl-Trp-oxazolone): 0.831 | self-aminoacylation (biotinyl-Met-oxazolone): 0.499 | self-aminoacylation (biotinyl-Leu-oxazolone): 0.468 | self-aminoacylation (biotinyl-Phe-oxazolone): 0.974 | self-aminoacylation (biotinyl-Val-oxazolone): 0.655

CUACUUCAAGCAAUAGGUCUG [Fam1A.1 aminoacylation ribozyme variant]
self-aminoacylation (biotinyl-Ile-oxazolone): 0.861 | self-aminoacylation (biotinyl-Trp-oxazolone): 0.918 | self-aminoacylation (biotinyl-Met-oxazolone): 0.763 | self-aminoacylation (biotinyl-Leu-oxazolone): 0.771 | self-aminoacylation (biotinyl-Phe-oxazolone): 1.25 | self-aminoacylation (biotinyl-Val-oxazolone): 0.904
